Laboratory results: patent US10844070B2, “Peripherally restricted GABA positive allosteric modulators for the treatment of irritable bowel syndrome and other ailments of the peripheral nervous system” (The Johns Hopkins University, priority 2014, dated 2020)
Counter-ions that a name gives are not always drawn. Some results were stated once for a whole list of compounds, not compound by compound. At least one structure is not confirmed: it was looked up by name or label, or the drawing left a doubt.

Target: GABA-A receptor
Assay: [3H]flunitrazepam binding to rat cerebral cortex tissue homogenate (CEREP 0028)

SMILES	Ki [µM]
NC(=O)NCCNC(=O)c1nc2n(n1)-c1ccc(Cl)cc1C(c1ccccc1F)=NC2 [Example 6, 8-chloro-6-(2-fluorophenyl)-N-(2-ureidoethyl)-4H-[1,2,4]triazolo[1,5-a][1,4]benzodiazepine-2-carboxamide]	< 0.5
O=C(O)c1nc2n(n1)-c1ccc(Cl)cc1C(c1ncccc1F)=NC2 [Example 11, 8-Chloro-6-(3-fluoro-2-pyridyl)-4H-[1,2,4]triazolo[1,5-a][1,4]benzodiazepine-2-carboxylic acid]	< 0.5
O=C(O)c1nc2n(n1)-c1ccc(Cl)cc1C(c1ccccc1F)=NC2 [Compound 1, 8-Chloro-6-(2-fluorophenyl)-4H-[1,2,4]triazolo[1,5-a][1,4]benzodiazepine-2-carboxylic acid]	< 0.5
O=C(O)c1cn2c(n1)CN=C(c1ccccc1F)c1cc(Cl)ccc1-2 [Example 12, 8-chloro-6-(2-fluorophenyl)-4H-imidazo[1,2-a][1,4]benzodiazepine-2-carboxylic acid]	< 0.5
O=C(O)c1nc2n(n1)-c1ccc(Br)cc1C(c1ccccc1F)=NC2 [Example 4, 8-Bromo-6-(2-fluorophenyl)-4H-[1,2,4]triazolo[1,5-a][1,4]benzodiazepine-2-carboxylic acid]	< 0.5
NCCNC(=O)c1nc2n(n1)-c1ccc(Cl)cc1C(c1ccccc1F)=NC2 [Example 10, N-(2-aminoethyl)-8-chloro-6-(2-fluorophenyl)-4H-[1,2,4]triazolo[1,5-a][1,4]benzodiazepine-2-carboxamide]	< 0.5
C[N+](C)(C)CCNC(=O)c1nc2n(n1)-c1ccc(Cl)cc1C(c1ccccc1F)=NC2 [Example 8, 2-[[8-chloro-6-(2-fluorophenyl)-4H-[1,2,4]triazolo[1,5-a][1,4]benzodiazepine-2-carbonyl]amino]ethyl-trimethyl-ammonium trifluoroacetate]	< 0.5
O=C(O)c1nc2n(n1)-c1ccc(C(F)(F)F)cc1C(c1ccccc1F)=NC2 [Example 2, 6-(2-Fluorophenyl)-8-(trifluoromethyl)-4H-[1,2,4]triazolo[1,5-a][1,4]benzodiazepine-2-carboxylic acid]	< 0.5
NS(=O)(=O)NCCNC(=O)c1nc2n(n1)-c1ccc(Cl)cc1C(c1ccccc1F)=NC2 [Example 9, 8-chloro-6-(2-fluorophenyl)-N-[2-(sulfamoylamino)ethyl]-4H-[1,2,4]triazolo[1,5-a][1,4]benzodiazepine-2-carboxamide]	< 0.5
O=C(O)c1nc2n(n1)-c1ccc(F)cc1C(c1ccccc1F)=NC2 [Example 3, 8-Fluoro-6-(2-fluorophenyl)-4H-[1,2,4]triazolo[1,5-a][1,4]benzodiazepine-2-carboxylic acid]	< 0.5
CN(C)CCNC(=O)c1nc2n(n1)-c1ccc(Cl)cc1C(c1ccccc1F)=NC2 [Example 7, 8-chloro-N-[2-(dimethylamino)ethyl]-6-(2-fluorophenyl)-4H-[1,2,4]triazolo[1,5-a][1,4]benzodiazepine-2-carboxamide]	< 0.5
O=C(O)c1nc2n(n1)-c1ccc(Cl)cc1C(c1c(F)cccc1F)=NC2 [Example 5, 8-Chloro-6-(2,6-difluorophenyl)-4H-[1,2,4]triazolo[1,5-a][1,4]benzodiazepine-2-carboxylic acid]	< 0.5
